Measured values taken from article PMC8256288.
Results are given in words; binding and its absence hold for the method and conditions named. Binding seen in cells or lysates may run through a third protein. Some binding calls cover weakened binding; strength is not graded here.

Amino acid sequences for entries named in this document (tags omitted). A change or cut given only in a name is not applied to a line headed by its entry. Chains listed by the source or under a name are the forms on record and can include a tag or linker.
UniProt Q5FBB7: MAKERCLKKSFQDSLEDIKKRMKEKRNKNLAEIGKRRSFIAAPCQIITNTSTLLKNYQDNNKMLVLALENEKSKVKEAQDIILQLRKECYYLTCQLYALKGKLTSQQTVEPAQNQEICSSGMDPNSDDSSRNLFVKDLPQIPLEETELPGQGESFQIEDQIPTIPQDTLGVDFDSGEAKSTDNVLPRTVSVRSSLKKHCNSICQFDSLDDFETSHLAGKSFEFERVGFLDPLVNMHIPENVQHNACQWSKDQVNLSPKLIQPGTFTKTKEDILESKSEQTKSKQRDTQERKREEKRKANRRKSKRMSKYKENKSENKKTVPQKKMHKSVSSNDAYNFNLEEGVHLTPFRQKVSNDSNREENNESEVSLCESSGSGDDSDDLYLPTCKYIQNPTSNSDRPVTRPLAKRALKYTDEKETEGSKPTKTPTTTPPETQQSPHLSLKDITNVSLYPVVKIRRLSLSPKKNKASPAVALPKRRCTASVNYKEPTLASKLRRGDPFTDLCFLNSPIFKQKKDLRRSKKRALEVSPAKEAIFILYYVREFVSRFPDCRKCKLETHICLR
YFP‐hSgo1 3A (Q5FBB7, form named): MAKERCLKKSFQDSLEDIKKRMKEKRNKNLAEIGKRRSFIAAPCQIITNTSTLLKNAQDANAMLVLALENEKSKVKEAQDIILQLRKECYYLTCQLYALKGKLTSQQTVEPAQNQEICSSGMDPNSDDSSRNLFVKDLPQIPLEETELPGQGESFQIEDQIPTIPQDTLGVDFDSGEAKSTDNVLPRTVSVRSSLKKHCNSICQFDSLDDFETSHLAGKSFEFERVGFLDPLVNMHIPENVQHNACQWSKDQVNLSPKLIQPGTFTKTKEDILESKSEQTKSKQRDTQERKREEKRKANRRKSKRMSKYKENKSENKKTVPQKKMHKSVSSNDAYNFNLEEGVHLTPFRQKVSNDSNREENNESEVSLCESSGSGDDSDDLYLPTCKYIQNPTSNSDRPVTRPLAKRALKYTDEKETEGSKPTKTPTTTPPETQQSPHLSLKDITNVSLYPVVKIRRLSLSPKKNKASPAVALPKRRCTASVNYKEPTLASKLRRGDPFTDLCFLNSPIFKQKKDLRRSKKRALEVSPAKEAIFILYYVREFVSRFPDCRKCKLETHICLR
YFP‐hSgo1 4A (Q5FBB7, form named): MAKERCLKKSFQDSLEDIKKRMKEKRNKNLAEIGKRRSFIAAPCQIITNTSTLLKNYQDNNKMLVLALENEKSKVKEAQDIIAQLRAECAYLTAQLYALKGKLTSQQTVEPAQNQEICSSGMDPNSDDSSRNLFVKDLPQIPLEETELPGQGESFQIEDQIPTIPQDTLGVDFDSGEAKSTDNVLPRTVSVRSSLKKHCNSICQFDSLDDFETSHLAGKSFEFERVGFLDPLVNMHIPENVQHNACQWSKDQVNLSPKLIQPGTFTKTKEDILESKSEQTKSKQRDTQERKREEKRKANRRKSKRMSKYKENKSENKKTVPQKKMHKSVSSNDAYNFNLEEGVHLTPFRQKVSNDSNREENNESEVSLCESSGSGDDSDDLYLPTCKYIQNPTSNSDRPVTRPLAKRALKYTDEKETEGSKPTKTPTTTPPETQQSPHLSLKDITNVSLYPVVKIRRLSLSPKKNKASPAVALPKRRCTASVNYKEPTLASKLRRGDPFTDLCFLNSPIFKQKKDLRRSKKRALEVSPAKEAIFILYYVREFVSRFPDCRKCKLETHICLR
UniProt Q9UQE7: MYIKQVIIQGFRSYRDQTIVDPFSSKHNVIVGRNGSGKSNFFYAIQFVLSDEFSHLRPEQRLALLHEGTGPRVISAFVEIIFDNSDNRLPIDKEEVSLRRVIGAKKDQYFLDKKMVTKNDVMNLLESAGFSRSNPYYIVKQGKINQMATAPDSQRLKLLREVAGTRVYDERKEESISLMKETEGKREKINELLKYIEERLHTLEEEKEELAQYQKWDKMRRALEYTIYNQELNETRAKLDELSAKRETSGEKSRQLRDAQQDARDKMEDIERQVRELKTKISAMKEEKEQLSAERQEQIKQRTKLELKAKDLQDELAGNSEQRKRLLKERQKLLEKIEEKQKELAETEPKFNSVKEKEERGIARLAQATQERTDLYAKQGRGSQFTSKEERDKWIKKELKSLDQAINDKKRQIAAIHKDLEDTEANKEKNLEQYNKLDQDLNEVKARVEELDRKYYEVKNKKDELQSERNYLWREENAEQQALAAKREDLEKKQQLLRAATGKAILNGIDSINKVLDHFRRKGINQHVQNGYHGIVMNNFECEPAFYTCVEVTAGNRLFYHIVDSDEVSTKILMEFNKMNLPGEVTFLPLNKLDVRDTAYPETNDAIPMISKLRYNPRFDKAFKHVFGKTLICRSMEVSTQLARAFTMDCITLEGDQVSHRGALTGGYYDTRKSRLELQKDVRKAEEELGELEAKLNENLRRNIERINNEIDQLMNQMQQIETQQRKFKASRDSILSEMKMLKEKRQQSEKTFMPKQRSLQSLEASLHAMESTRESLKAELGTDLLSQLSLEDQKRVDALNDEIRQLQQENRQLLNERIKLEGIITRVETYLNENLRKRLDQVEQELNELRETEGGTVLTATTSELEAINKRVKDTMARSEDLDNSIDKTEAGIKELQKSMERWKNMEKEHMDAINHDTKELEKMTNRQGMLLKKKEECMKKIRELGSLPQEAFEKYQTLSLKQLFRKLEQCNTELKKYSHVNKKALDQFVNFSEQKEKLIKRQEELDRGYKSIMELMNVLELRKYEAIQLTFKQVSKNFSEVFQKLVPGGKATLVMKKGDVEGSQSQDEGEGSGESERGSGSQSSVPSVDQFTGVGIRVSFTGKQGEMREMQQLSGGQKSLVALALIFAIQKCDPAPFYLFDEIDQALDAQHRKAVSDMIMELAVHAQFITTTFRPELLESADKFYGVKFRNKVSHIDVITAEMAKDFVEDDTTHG

How the values were obtained:
Experiment in all cases: co-IP; IP of stably expressed YFP-hSgo1 WT, 3A, 4A; immunoblot of Smc1 and Smc3, LI-COR; salt not stated for this experiment
YFP‐hSgo1 3A (human) = YFP‐hSgo1 3A (human) (UniProt Q5FBB7)
YFP‐hSgo1 4A (human) = YFP‐hSgo1 4A (human) (UniProt Q5FBB7)
YFP‐hSgo1 WT (human) = YFP‐hSgo1 WT (human) (UniProt Q5FBB7)

binding (YFP‐hSgo1 3A (human)): binds
binding (YFP‐hSgo1 4A (human)): binds
binding (YFP‐hSgo1 WT (human)): binds
Substance: Smc3 (endogenous) (from UniProt Q9UQE7 1-1217)
